In patent publication US5849690A (SmithKline Beecham Corporation, priority 1992, dated 1998):
Strings that start with PEPTIDE1 are HELM notation: dots part the residues, brackets hold end groups and non-standard residues.

How the values were obtained:
[1] = general procedure: Boc solid-phase peptide synthesis; 4-methylbenzhydrylamine (MBHA) resin; BHA resin; hydroxymethyl resin for C-terminal ethylamides
[2] = general procedure: Boc solid-phase peptide synthesis; hydroxymethyl resin; conditions: whole synthesis
[3] = general procedure: Boc solid-phase peptide synthesis; BHA; conditions: whole synthesis
[4] = general procedure: Boc solid-phase peptide synthesis; MBHA; conditions: whole synthesis, scale 1.0 mmol
[5] = whole synthesis, scale of the general procedure 1.0 mmol
[6] = whole synthesis, scale 1.0 mmol

Row | Substance | isolated mass ([1]; whole synthesis) | final purity (method not given) [1, 5] | isolated yield [1, 5] | other results
1 | Cyclo(S,S)Mpr-MeArg-Gly-Asp-Pen-NH2 | 365 mg | >96% | 63% | 
2 | PEPTIDE1{[ac].R.G.D.[dS].[am]}$$$$V2.0 |  | 95% |  | isolated mass [1, 6]: 337 mg
3 | N^α -Ac-Cyclo(S,S)Pen-Arg-Gly-Asp-Cys-NH2 | 400 mg | 95% | 65% | 
4 | N^α -Ac-Cyclo(S,S)Cys-MeArg-Gly-Asp-Cys-NH2 (RGDC; N-acetyl; cyclic disulfide; C-terminal amide; printed: Arg-Gly-Asp-Cys-) |  | >98% |  | crude mass [1, 6]: 780 mg
5 | PEPTIDE1{[ac].C.[MeArg].G.D.S.[Pen].[am]}$PEPTIDE1,PEPTIDE1,2:R3-7:R3$$$V2.0 | 47.5 mg | 94% |  | crude mass [1, 6]: 542 mg; crude yield [1, 5]: 75%
6 | PEPTIDE1{[Mpr].R.G.D.S.C.[am]}$PEPTIDE1,PEPTIDE1,1:R3-6:R3$$$V2.0 |  | 96% | 79% | isolated mass [1, 6]: 489 mg
7 | PEPTIDE1{[ac].C.[Et2Arg].G.D.[Pen].[am]}$PEPTIDE1,PEPTIDE1,2:R3-6:R3$$$V2.0 | 590 mg | 95% | 87% | 
8 | PEPTIDE1{[ac].C.R.G.D.[Pen].[am]}$PEPTIDE1,PEPTIDE1,2:R3-6:R3$$$V2.0 |  | >97% |  | crude mass [1, 6]: 400 mg; crude yield [1, 5]: 65%
9 | PEPTIDE1{[ac].C.R.G.D.[Pen].[NHEt]}$PEPTIDE1,PEPTIDE1,2:R3-6:R3$$$V2.0 |  | 97% | 48% | isolated mass [2]: 307 mg
10 | PEPTIDE1{[ac].C.[HArg].G.D.[Pen].[am]}$PEPTIDE1,PEPTIDE1,2:R3-6:R3$$$V2.0 |  |  |  | final purity (method not given) ([1]; late stage modification step): 95%; step yield ([1]; late stage modification step): 37%
11 | Gly-MeArg-Gly-Asp-Ser-NH2 (RGDS; N-terminal Gly-Me; C-terminal amide; printed: Arg-Gly-Asp-Ser-) |  | >95% | 80% | isolated mass [3]: 406 mg
12 | PEPTIDE1{[ac].C.R.G.D.S.C.[am]}$PEPTIDE1,PEPTIDE1,2:R3-7:R3$$$V2.0 | 61 mg | 90% |  | crude mass [1, 6]: 530 mg; crude yield [1, 5]: 78%
13 | PEPTIDE1{[ac].R.G.D.V.[am]}$$$$V2.0 |  | >95% |  | isolated mass [4]: 125 mg
14 | N^α -Ac-Cyclo(S,S)Cys-D-MeArg-Gly-Asp-Pen-NH2 | 450 mg |  | 71% | 
15 | PEPTIDE1{[ac].C.[dR].G.D.[Pen].[am]}$PEPTIDE1,PEPTIDE1,2:R3-6:R3$$$V2.0 |  | 95% | 50% | isolated mass ([1]; whole synthesis, scale 1.00 mmol): 300 mg
16 | PEPTIDE1{[ac].C.[MeArg].G.D.[Pen].[am]}$PEPTIDE1,PEPTIDE1,2:R3-6:R3$$$V2.0 |  | 95% | 35% | isolated mass [1, 6]: 209 mg

Row | Substance | isolated mass ([1]; whole synthesis) | final purity (method not given) [1, 5] | isolated yield [1, 5] | other results
17 | N^α -Ac-Arg-Gly-Asp-Ser-NH2 |  |  |  | isolated mass ([3]; scale 0.5 mmol): 80.8 mg
18 | PEPTIDE1{[ac].C.[MeArg].G.D.Y.C.[am]}$PEPTIDE1,PEPTIDE1,2:R3-7:R3$$$V2.0 |  | 95% | 45% | isolated mass [1, 6]: 350 mg
19 | PEPTIDE1{[Mpr].[MeArg].G.D.S.C.[am]}$PEPTIDE1,PEPTIDE1,1:R3-6:R3$$$V2.0 |  | >98% |  | crude mass [1, 6]: 256.5 mg; crude yield [1, 5]: 40%
20 | PEPTIDE1{[ac].R.G.D.[Nal].[am]}$$$$V2.0 |  | >98% |  | isolated mass [4]: 57 mg
21 | PEPTIDE1{[ac].C.[MeArg].G.D.S.C.[am]}$PEPTIDE1,PEPTIDE1,2:R3-7:R3$$$V2.0 | 222.3 mg | >98% |  | crude mass [4]: 678.6 mg; crude yield [4]: 98% crude yield
22 | PEPTIDE1{[ac].R.R.G.D.F.[am]}$$$$V2.0 |  | 98% |  | isolated mass ([3]; scale 1.0 mmol): 303.4 mg
23 | PEPTIDE1{[ac].[MeArg].G.D.S.[am]}$$$$V2.0 | 60.6 mg | >96% |  | crude mass ([3]; scale 0.5 mmol): 75.8 mg; crude yield [1, 5]: 31%
24 | PEPTIDE1{[ac].R.G.D.S.[NHEt]}$$$$V2.0 |  | >95% |  | 
25 | N^α -Ac-Arg-Gly-Asp-Tyr-NH2 |  |  |  | isolated mass ([3]; scale 0.5 mmol): 142.1 mg
26 | N^α -Ac-Cyclo(S,S)Cys-Arg-Gly-Asp-Cys-NH2 |  | 95% |  | crude mass [1, 6]: 280 mg; crude yield [1, 5]: 47%
27 | PEPTIDE1{[ac].C.K.G.D.[Pen].[am]}$PEPTIDE1,PEPTIDE1,2:R3-6:R3$$$V2.0 |  | >97% | 15% | isolated mass ([1]; whole synthesis, scale 2.0 mmol): 180 mg
28 | N^α -Ac-Cyclo(S,S)Cys-D-Arg-Gly-Asp-Ser-Cys-NH2 | 370 mg | 95% | 55% | 
29 | PEPTIDE1{[ac].C.R.G.D.[D-Pen].[am]}$PEPTIDE1,PEPTIDE1,2:R3-6:R3$$$V2.0 |  | >96% | 5.4% | isolated mass ([1]; whole synthesis, scale 1.5 mmol): 50 mg
30 | N^α -Ac-Cyclo(S,S)Pen-MeArg-Gly-Asp-Pen-NH2 | 395 mg | 95% | 60% | 
31 | N^α -Ac-Cyclo(S,S)Cys-Sar-Arg-Gly-Asp-Pen-NH2 | 600 mg | 95% | 87% | 
